Results taken from patent US5352680A, “Delta opioid receptor antagonists to block opioid agonist tolerance and dependence” (priority 1992, dated 1994).
Like-named read-outs stand apart in the source and are kept apart here.

How the values were obtained:
[1] = test system: development of morphine tolerance in mice treated acutely with morphine; type: in vivo, mice (male Swiss-Webster)
[2] = test system: development of morphine tolerance in mice treated chronically with morphine; type: in vivo, mice (male Swiss-Webster)
Protocol: Male Swiss-Webster mice (BioLab, White Bear Lake, Minn.) weighing 20 to 25 g were used. The mice were rendered tolerant to and dependent on morphine by s.c. implantation of one morphine pellet (75 mg free base)/mouse for 3 days according to the procedure of E. L. Way et al., J. Pharmacol. Exp. Ther., 167, 1 (1969). Control animals were implanted with placebo pellets. Mice were anesthetized lightly with methoxyflurane during the implantation process. […] Chem. Pathol. Pharmacol., 16, 721 (1977).
At least 30 mice (10/group) and three to four dose levels were used to determine each ED50 value.
The ED50 values of morphine and their 95% CL were determined by the parallel line assay of D. J. Finney, Statistical Methods in Biological Assay, Hafner Pub. Co., N.Y. (2d ed. 1969) with the aid of a computer program which has the capability to analyze at the same time 12 lines (dose-response curves) and 6 points (dose levels) per line with log and probit transformations and 35 repetitions per point.
Mice were implanted with a single placebo (control) or morphine pellet (75 mg free base) for 3 days. NTI (10 pmol/mouse) was administered i.c.v. 90 min before and 24 and 48 hr after the morphine pellet implantation. 5'-NTII (10 nmol/mouse) was administered 24 hr before, at the same time as and 24 and 48 hr after the morphine pellet implantation.

## CN1CC[C@]23c4c5ccc(O)c4O[C@H]2[C@@H](O)C=C[C@H]3[C@H]1C5.O=S(=O)(O)O [Morphine sulfate, reference compound]
[1]; after single s.c. dose of 100 mg/kg morphine sulfate (acute tolerance)
  antinociceptive ED50 (95% CL) of morphine sulfate: 14(range=11-18) mg/kg
[1]; control animals, tail-flick
  antinociceptive ED50 (95% CL) of morphine sulfate: 4.0(3.0-5.2) mg/kg
[2]; animals implanted with morphine pellets for 3 days
  ED50 (95% CL) of morphine sulfate: 82 (64-106) mg/kg
[2]; animals receiving placebo pellets
  ED50 (95% CL) of morphine sulfate: 4.4 (3.4-5.6) mg/kg
